Among the data in article PMC8543921 are binding values, retold here.

Sequences of proteins named here, by UniProt entry; tags and fusion partners are left off. A change or cut given only in a name is not applied to a line headed by its entry.
UniProt Q7DLS1: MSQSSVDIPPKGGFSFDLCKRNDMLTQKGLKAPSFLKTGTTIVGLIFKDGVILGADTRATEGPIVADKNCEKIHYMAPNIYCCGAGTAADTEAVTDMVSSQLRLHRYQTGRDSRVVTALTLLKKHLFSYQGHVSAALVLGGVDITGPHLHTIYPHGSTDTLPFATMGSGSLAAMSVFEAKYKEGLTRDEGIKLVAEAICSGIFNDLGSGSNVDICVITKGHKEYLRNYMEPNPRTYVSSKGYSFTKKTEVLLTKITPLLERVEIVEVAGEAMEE
UniProt O23710: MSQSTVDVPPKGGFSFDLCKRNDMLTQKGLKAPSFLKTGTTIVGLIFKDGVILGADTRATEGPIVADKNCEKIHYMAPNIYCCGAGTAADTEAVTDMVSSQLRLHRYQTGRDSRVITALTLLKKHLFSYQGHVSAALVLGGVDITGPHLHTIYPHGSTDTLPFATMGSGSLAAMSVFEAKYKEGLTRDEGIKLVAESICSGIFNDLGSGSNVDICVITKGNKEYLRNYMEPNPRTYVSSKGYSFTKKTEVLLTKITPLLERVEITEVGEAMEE
UniProt Q9FFV7: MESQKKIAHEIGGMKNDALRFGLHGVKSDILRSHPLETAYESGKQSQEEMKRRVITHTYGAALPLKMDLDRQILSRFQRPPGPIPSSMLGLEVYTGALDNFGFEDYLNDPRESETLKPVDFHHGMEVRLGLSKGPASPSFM
UniProt Q9SZD4: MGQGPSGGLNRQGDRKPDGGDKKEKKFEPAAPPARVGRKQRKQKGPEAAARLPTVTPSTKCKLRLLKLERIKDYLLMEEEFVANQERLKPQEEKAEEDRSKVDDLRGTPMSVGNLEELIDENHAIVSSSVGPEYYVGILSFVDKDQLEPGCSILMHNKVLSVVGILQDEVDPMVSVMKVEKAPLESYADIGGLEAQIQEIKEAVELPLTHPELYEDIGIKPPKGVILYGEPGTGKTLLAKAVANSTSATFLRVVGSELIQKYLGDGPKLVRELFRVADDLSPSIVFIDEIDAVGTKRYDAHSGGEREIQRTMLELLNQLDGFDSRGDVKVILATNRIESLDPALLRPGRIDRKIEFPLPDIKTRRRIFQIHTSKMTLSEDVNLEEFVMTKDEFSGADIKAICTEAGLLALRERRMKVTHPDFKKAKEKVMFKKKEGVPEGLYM
UniProt F4JC97: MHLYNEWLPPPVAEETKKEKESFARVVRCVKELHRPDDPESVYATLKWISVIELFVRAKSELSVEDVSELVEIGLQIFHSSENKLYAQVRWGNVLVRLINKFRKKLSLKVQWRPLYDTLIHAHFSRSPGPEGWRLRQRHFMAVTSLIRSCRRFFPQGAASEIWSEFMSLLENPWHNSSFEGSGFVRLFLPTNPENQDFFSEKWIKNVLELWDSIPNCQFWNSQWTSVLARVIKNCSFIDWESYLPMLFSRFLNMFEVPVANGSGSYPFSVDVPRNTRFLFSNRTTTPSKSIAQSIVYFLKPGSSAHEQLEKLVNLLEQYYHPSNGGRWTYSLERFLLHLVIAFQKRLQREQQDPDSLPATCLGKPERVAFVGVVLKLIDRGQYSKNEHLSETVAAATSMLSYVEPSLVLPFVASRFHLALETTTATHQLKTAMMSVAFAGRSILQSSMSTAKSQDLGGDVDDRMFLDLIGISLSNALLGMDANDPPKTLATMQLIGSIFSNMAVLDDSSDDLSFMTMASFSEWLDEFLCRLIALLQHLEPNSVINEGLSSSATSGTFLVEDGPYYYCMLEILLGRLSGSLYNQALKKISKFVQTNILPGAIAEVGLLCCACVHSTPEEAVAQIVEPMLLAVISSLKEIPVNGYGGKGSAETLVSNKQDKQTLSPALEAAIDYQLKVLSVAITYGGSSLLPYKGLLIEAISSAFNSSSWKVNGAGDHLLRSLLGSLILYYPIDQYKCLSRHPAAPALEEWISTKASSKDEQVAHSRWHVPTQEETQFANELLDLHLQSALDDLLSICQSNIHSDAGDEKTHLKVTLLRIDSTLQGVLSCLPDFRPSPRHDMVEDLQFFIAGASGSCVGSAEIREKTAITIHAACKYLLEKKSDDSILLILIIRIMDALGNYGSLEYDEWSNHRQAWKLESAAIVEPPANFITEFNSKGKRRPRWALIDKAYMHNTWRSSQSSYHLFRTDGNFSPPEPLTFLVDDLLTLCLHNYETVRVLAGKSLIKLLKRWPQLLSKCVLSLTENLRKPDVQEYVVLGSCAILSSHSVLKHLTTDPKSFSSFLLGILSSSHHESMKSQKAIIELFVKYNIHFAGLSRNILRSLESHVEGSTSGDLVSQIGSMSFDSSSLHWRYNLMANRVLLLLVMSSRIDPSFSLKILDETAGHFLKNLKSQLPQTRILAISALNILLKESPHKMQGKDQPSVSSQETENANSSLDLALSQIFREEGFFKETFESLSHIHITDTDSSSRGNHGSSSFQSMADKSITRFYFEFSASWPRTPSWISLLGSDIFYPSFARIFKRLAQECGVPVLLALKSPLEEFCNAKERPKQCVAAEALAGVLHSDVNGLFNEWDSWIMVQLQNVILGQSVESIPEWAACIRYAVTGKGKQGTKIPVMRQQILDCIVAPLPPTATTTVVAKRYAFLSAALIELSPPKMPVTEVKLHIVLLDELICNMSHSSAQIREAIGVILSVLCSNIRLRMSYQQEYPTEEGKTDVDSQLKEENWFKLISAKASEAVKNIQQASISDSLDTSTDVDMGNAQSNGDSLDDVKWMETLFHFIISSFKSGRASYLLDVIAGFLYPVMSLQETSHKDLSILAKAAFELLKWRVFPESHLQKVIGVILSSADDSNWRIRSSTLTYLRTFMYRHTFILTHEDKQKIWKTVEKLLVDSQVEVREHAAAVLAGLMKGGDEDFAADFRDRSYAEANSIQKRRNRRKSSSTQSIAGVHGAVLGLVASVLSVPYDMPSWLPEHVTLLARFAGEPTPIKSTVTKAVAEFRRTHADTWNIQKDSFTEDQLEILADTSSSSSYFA
UniProt F4HRT6: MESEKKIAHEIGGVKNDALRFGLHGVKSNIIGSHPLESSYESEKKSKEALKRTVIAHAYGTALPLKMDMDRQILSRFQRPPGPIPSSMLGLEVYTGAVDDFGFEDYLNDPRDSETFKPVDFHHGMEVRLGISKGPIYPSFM

No constants are given. Whether binding was seen depends on the method and setting. Binding seen in cells or lysates may run through a third protein. Here binding means that the protein was enriched with, or labelled near, the bait; the list need not be complete. For some assays here: A no says only that the protein was not detected with the bait. Sequences can lack the tags named with a protein.

Assay [1] deals with T1, PAG1-FLAG (Arabidopsis thaliana) (UniProt O23715).
T1 sequence: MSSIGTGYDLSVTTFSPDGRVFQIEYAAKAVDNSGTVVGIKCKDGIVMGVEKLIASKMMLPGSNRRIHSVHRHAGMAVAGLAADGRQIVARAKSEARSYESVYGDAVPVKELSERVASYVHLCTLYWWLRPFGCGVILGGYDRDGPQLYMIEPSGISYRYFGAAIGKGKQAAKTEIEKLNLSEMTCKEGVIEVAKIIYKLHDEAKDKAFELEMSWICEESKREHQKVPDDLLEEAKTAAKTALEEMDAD
Kind of assay: affinity purification with mass spectrometry; PAG1-FLAG proteasomes from seedling lysate on anti-FLAG M2 resin, 1 h at 4 °C, buffer A (50 mM HEPES-KOH pH 7.5, 50 mM NaCl, 10% glycerol, 10 mM MgCl2, 5 mM DTT) with 20 mM ATP, eluted with 3X FLAG peptide, LC-MS/MS; control, MV- and NaCl-treated seedlings.

Assay [2] concerns the target T1, PAG1-FLAG (Arabidopsis thaliana). Kind of assay: condition: only seedlings stressed with 150 mM NaCl; affinity purification with mass spectrometry; as a1 with 20 mM ATP, seedlings stressed with 150 mM NaCl.
For assay [3] the target is unchanged. Kind of assay: affinity purification with mass spectrometry; PAG1-FLAG proteasomes on anti-FLAG M2 resin, LC-MS/MS; isolated in the presence and/or absence of 20 mM ATP (not told for each protein); less found from NaCl-treated seedlings.
Assay [4] shares this target. Kind of assay: affinity purification with mass spectrometry; as a1 with 20 mM ATP, seedlings stressed with 150 mM NaCl.

Consider PBB2 (from UniProt Q7DLS1), for which the binding entry in assay [1] is listed as “binds”.

With SEM1/DSS1, the binding entry is reported as “binds” in assay [1] and “no binding” in assay [2].

As to PBAC2, the binding result in assay [3] was “binds”.

In the case of PBAC4, the binding entry in assay [3] was “binds”.

As to PBB1 (from UniProt O23710), the binding entry in assay [1] was “binds”.

For the molecule UMP1b (from UniProt Q9FFV7), the binding result in assay [3] is given as “binds”.

Regarding PTRE1, in assay [3], the binding result is “binds”.

For the molecule RPT2a (from UniProt Q9SZD4 1-443), the binding entry in assay [4] is “binds”.

As for PBAC3, the binding result in assay [3] was “binds”.

As to PAF, the binding entry in assay [1] is “binds”.

Take PA200 (from UniProt F4JC97 1-1811): the binding entry in assay [3] was “binds”.

Take RPN2: the binding result in assay [1] is listed as “binds”.

Consider PBAC1, for which the binding entry in assay [3] is listed as “binds”.

In the case of UMP1a (from UniProt F4HRT6), the binding entry in assay [3] is “binds”.

RPN5: in assay [1], the binding entry is “binds”.

In the case of PAP1, in assay [3], the binding result is “binds”.

In the case of RPT5, in assay [1], the binding entry is on record as “binds”.

B1: RPN1a (protein, UniProt Q9SIV2 1-891)
chain: MAPTQDPNSVGGGAKKDEATLKVPSKDPKKKDEKKDEDLSEEDLELKQNLELYVERVQDPNPELQKAALESMRQEIRASTSSMTSVPKPLKFLRPHYGTLKAFHETMADSDLKKYLSDILSVLALTMSADGERESLRFRLIGTEGDIGSWGHEYVRNLAGEIAQEYTKRQSEEASIDDLMELVQQIVAFHMKHNAETEAVDLLMDVEDLDLLLEHVDKTNFKRTCNYLTSAARYLPGPDDMLVLDISYMIYMKFEEYPNALQIALFLDNTQYVKQVFTSCTDLLKKKQFCYMIARHGITFELDDEMVADDDDREALQDIVNNTKLSEGYLTLARDIEVMEAKTPEDIYKAHLLDGRASSGASVDSARQNLAATFVNAFVNAGFGQDKLMTVPSDSTTGSSGNWLFKNKEHGKTSAAASLGMIQLWDVDSGLSQLDKYFHSNDNPIIAGALLGVGIVNCGIKNDCDPALALLGDYIDKEDSSVRIGAIMGLGISYAGSQNDQIRNKLSPILNDAKAPLDVIAFASLSLGMIYVGSCNEEVAQSIIFALMDRSEAELGDALTRFLPLGLGLLYLGKQESVEATAEVSKTFNEKIRKYCDMTLLSCAYAGTGNVLKVQDLLAQCGEHLEKGDIHQGPAVLGLAMVAMSEELGVDMEIRSLERMLQYGEQNIRRAVPLALGLLCISNPKVTVMDTLSRLSHDTDSEVAMSAIISLGLIGAGTNNARIAGMLRNLSSYYYKDMSLLFCVRIAQGLVHMGKGLLTLSPFHSERFLLSPTALAGIVTLLHACLDMKPIILGKYHYVLYFLVLAMQPRMMLTVDENLKPLSVPVRVGQAVDVVGQAGRPKTITGFQTHSTPVLLAAGERAELATDKYIPLSPILEGFIILKENPDYREE
As for B1, the binding result in assay [1] is listed as “binds”.

B2: RPN1b (protein, UniProt Q6XJG8 1-891)
chain: MAPVPDPNSVGGGAKRDEATTKIPSKDSKKKDDKKEEDLSEEDLQLKQNLELYVERVQDPNPELQKIALESMRKEIRDSTSSMTSVPKPLKFLRPHYGVLKEFHAKMAESDLKKMLADILSVLALTMSAEGERESLNYRLNGSESDIGSWGHEYVRNLAGEIAKEYTIRQGEESSIEDLMDLVQQIVSFHMKHNAETEAVDLLMDVEDLDLLLEHVDNTNFRRTCNYLTSAAKYLPGPDDMLVLDIAYMIYIKFAEYPNALQIALFLDNMQYVKQVFTSCTDLVKKKQFCYMIARHGMTFELDQEMVANDEDKEALQDIVNNSKLSEGYLTLARDIEVMEAKTPEDIYKAHLLDGRASSGPSVDSARQNLSATFVNAFVNAGFGQDKLMTVPSDSTSGSAGNWLFKNKEHGKTSAVASLGMIQLWDVETGLGHLDKYFHSNDNPVVAGALLGVGIVNCGIKNDCDPAFALLSGYIDNEDSSVRIGAIMGLGIAYAGSQNDQIKIRLSPILNDANAPLDVIAFAALSLGMIYVGSCNEEVAQSIIFALMDRSEAELGEALTRFLPLGLGLLYLGKQESVEATAEVSKTFNEKIRKYCDMTLLSCAYAGTGNVLKVQDLLAQCGEHLVKGDIHQGPAVIGLAMVAMSEELGLDMEIRSLERVLQYGEQNIRRAVPLALGLLCISNPKVTVMDTLSRLSHDTDSEVAMAAIISLGLIGAGTNNARIAGMLRNLSSYYYKDASLLFCVRIAQGFVHMGKGLLTLNPFHSERLLLSPTALAGIVTLLHACLDMKSIILGKYHYVLYFLVLAMQPRMMLTVDQSLKPISVPVRVGQAVDVVGQAGRPKTITGFQTHSTPVLLAAGERAELATEKYIPLSPILEGFVILKENPDYREE
Regarding B2, the binding result in assay [1] was “binds”.
